Results deposited as PubChem BioAssay AID1224830 (NIAID, 2016).

Screen: 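Regulators of TLR4 signalling towards TNF-alpha in macrophage-like cells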 (primary screen)
System: human THP-1 monocytic leukaemia cells, TNF dual-luciferase reporter clone, PMA-differentiated to macrophage-like cells
Knock-down reagent: siRNA pool against human genes, 50 nM
Timing: LPS for 4 h, given about 3 days after siRNA transfection
Treatment: bacterial LPS (TLR4 ligand), 10 ng/ml
Read-out: 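TNF firefly reporter luminescence divided by renilla, normalised to the plate median, then turned into a robust z-score for each replicate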
Direction: TNF reporter robust z-score: higher = stronger TNF reporter response to LPS
Hit rule: 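a well is active when its z-score exceeds 2.8 or falls below -1.5; control wells carry no call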
Here is an unselected part of about 18,000 reagents. About 2,900 of them (16%) were called active. 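Calls are made per well; low scores hint the gene aids the LPS response, high scores that it dampens it.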 A number with no mark means an inactive call. Repeated entries: four replicate wells of each siRNA pool.

no.	gene knocked down	TNF reporter robust z-score
1	CIDEC	0.85
2	CIDEC	1.12
3	CIDEC	1.28
4	CIDEC	1.87
5	KCTD21	-0.66
6	KCTD21	-0.5
7	KCTD21	-0.94
8	KCTD21	-0.4
9	ZKSCAN3	1.19
10	ZKSCAN3	0.44
11	ZKSCAN3	0.37
12	ZKSCAN3	1.7
13	ZBTB24	0.61
14	ZBTB24	-0.52
15	ZBTB24	-0.25
16	ZBTB24	0.05
17	DSN1	0.65
18	DSN1	0.6
19	DSN1	0.09
20	DSN1	2.06
21	TAS2R46	0.96
22	TAS2R46	0.54
23	TAS2R46	-0.65
24	TAS2R46	0.55
25	IL20RB	1.48
26	IL20RB	1.72
27	IL20RB	-0.85
28	IL20RB	-0.67
29	ORC6	-0.7
30	ORC6	-0.09
31	ORC6	0.33
32	ORC6	0.24
33	NAV2	-0.97
34	NAV2	-0.33
35	NAV2	-1.51 (active)
36	NAV2	-0.07
37	LRP8	-0.16
38	LRP8	-0.07
39	LRP8	-0.46
40	LRP8	0.45
41	OTC	-1.1
42	OTC	-0.58
43	OTC	-0.9
44	OTC	-0.42
45	RTL8B	-0.83
46	RTL8B	-0.55
47	RTL8B	-0.63
48	RTL8B	-1.27

Active calls, among the entries above:
gene knocked down	TNF reporter robust z-score
NAV2	-1.51 (active)
